Paper PMC7489219 (Molecular Brain, 2020)
Where a name gives a salt, the structure may show the parent alone.

System: T1, primary mouse cortical neurons
T1 construct: primary cortical neurons, DIV 10
Test: cells
Parameters: Protection from NMDA-induced (30 uM, 10 min) neuronal death; Hoechst nuclear morphology by automated microscopy
Conditions: Cortical neurone, 20 h, read-out: % inhibition, inhibition of NMDA-induced cell death (protection score), 30 min pre-treatment
Method: On DIV 10, compounds were applied to the cells reaching an end concentration of 10 μM. Cells were incubated for 30 min at 37 °C, 5% CO2 before adding NMDA (30 μM). Cells were incubated for another 10 min in the incubator, then washed twice with defined minimal medium containing 10 μM of the respective compound and incubated for an additional 20 h before readout. Untreated (no NMDA) and NMDA-only stimulated wells were treated with 0.1% DMSO. […] After 15 min of incubation at room temperature, cells were washed twice with phosphate buffered saline. […] Dead neurons were identified by amorphous or shrunken nuclei using CellProfiler and CellProfiler Analyst software. For all cell death analyses the experimental unit (N) is defined as an independent experiment using an independent neuronal preparation. For each independent experiment, data from 3 replicate wells (i.e., from 36 images), representing an average of 3000 cells was analyzed per condition. The survival rate S was calculated by dividing the number of living cells by the total number of cells. The survival rate was then used to calculate the protection score according to Scompound−Svehicle/Suntreated−Svehicle×100=%protection , where ‘compound’ refers to compound + NMDA treatment, ‘vehicle’ refers to vehicle + NMDA treatment, and ‘untreated’ refers to DMSO control. […]

CN1CCC[C@@H]1CCO[C@](C)(c1ccccc1)c1ccc(Cl)cc1 [Clemastine fumarate]
inhibition at 10 µM: 1.09%
